Measured values taken from patent publication US20240226204A9 (priority 2021, published 2024).
For at least one compound, name, drawing or mass did not settle the structure.

Assays:
COVID-19 = settings: human, in vivo; cited from earlier work
SARS-CoV-2 [1] = assay type: cell-based
SARS-CoV-2 [2] = assay type: cell-based; remark: listed apart in the source

SMILES	efficacy / antiviral effect in clinical use against COVID-19 (COVID-19)	SARS-CoV-2 plaque titers (SARS-CoV-2 [1])	inhibiting/antiviral effects with increasing dilution (SARS-CoV-2 [1])	overall mortality (COVID-19)	survival rate (COVID-19)	time required for recovery of COVID-19 patients (COVID-19)	suppression of SARS-CoV-2 replication caused by IAV DIPs, upon additional ruxolitinib (SARS-CoV-2 [2])	virus titers compared to control SARS-CoV-2 infection without DIPs and without ruxolitinib (SARS-CoV-2 [2])
C[C@@H]1C[C@H]2[C@@H]3CCC4=CC(=O)C=C[C@]4(C)[C@@]3(F)[C@@H](O)C[C@]2(C)[C@@]1(O)C(=O)CO [dexamethasone]	show an antiviral effect	–	–	–	–	–	–	–
CCC(CC)COC(=O)[C@H](C)N[P@](=O)(OC[C@H]1O[C@@](C#N)(c2ccc3c(N)ncnn23)[C@H](O)[C@@H]1O)Oc1ccccc1 [remdesivir]	only limited efficacy	below the LOD	decreased significantly faster	no overall decrease in mortality	-4%	decreased by five days	–	–
N#CC[C@H](C1CCCC1)n1cc(-c2ncnc3[nH]ccc23)cn1 [ruxolitinib]	–	–	–	–	–	–	completely abrogated	insignificantly different
